Source: PubChem BioAssay AID743255 (National Center for Advancing Translational Sciences (NCATS), 2014)
The campaign covered roughly 390,000 compounds. About 910 (0.23%) were called active. Inconclusive means that the source gave no clear call. Such entries were picked first, then a sample of the others. The call rests on the fitted dose curve; in most records, active means well fitted inhibition curve with a large enough effect; inconclusive means small, poorly fitted or top-dose-only effect; inactive means no such curve, though single readings can be large or run the other way. Potencies beside an inconclusive call are fits to weak or partial responses and may not hold up.

Sequences of proteins named here, by UniProt entry; tags and fusion partners are left off. A change or cut given only in a name is not applied to a line headed by its entry.
UniProt O94782: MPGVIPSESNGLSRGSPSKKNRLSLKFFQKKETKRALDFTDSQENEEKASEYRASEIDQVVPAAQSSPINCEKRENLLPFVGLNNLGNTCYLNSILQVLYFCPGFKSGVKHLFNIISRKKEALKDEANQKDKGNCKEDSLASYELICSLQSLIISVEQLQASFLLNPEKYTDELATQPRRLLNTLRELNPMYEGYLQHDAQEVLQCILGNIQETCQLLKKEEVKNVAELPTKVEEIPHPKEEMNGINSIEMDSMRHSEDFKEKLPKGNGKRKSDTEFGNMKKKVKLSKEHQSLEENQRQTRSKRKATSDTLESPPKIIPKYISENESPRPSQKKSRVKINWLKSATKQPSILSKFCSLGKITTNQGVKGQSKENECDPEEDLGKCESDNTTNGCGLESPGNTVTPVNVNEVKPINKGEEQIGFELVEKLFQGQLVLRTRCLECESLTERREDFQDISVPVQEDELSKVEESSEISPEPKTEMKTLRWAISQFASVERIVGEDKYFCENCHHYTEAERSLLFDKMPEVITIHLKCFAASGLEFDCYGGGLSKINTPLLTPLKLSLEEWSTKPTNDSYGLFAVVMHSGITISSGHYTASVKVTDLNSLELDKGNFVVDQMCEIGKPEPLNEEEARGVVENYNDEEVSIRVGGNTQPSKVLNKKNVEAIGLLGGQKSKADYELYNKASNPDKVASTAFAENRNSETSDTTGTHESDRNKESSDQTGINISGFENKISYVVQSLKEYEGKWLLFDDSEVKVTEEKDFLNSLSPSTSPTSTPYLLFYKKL

These compounds were tested against Ubiquitin carboxyl-terminal hydrolase 1 (Homo sapiens) (UniProt O94782) (assay: Inhibitors of USP1/UAF1: Primary Screen). Details: recombinant USP1/UAF1, Ub-Rhodamine cleavage fluorescence; activity change, negative = inhibition: at 57.1 µM (top of the series).
Outline: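 High-throughput fluorogenic screen: 1nM USP1/UAF1 complex, Ub-Rho substrate 150nM final, 50mM HEPES pH 7.8 with 0.5mM EDTA, 0.1 mg/ml BSA, 1mM TCEP and 0.01% Tween-20.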
Further: nearly all actives have a fitted effect of over 60% in size.
On the % scale 0 is the no-effect control and ±100 the full control effect; potency means the concentration at half of the fitted maximal effect.

Structure (SMILES)	Potency	activity change, negative = inhibition
CCOC(=O)c1cccc(N/C=C/C(=O)c2ccc(OC)c(OC)c2)c1	inconclusive: 39.8 µM [inhibitor, partial curve]	
Cc1ccc(C(=O)N2CC(C)CC(C)C2)cc1NC1=NC2CS(=O)(=O)CC2S1 (stereo unspecified)	inconclusive: 100 µM [inhibitor, partial curve]	
CCc1ccc(S(=O)(=O)c2cn(CC(=O)Nc3ccc(C)cc3)c3ccccc3c2=O)cc1	inconclusive: 3.55 µM [inhibitor, full curve]	
Cc1noc(C)c1C(=O)Nc1ccc(N(C)C)cc1	inconclusive: 56.2 µM [inhibitor, partial curve, poor fit]	
CCc1ccc(-c2csc(NC(=O)C3=COCCO3)n2)cc1	inconclusive: 50.1 µM [inhibitor, partial curve, poor fit]	
O=C(c1cnn2c1NC(c1ccco1)CC2C(F)(F)F)N1CCN(c2cccc(Cl)c2)CC1 (stereo unspecified)	inconclusive: 28.2 µM [inhibitor, partial curve]	
O=C(c1cc2cc(Cl)ccc2o1)N1CCCCCC1	inconclusive: 0.398 µM [inhibitor, full curve]	
CN(C)S(=O)(=O)Oc1cccc(C(=O)Nc2ccc(Cl)c(Cl)c2)c1	inconclusive: 25.1 µM [inhibitor, partial curve]	
Cc1ccc(CNC(=O)CCc2c(C)nc3c(c(C)nn3-c3ccc(C)cc3)c2C)cc1	inconclusive: 44.7 µM [inhibitor, partial curve]	
C=C1c2nc3ccccc3n2C=C(c2ccc(C)cc2)N1c1ccccc1	inconclusive: 28.2 µM [inhibitor, partial curve]	
COc1ccc(-c2cccc(C3CC=CC4C3C(=O)N(Cc3ccccc3)C4c3ccc(OC)c(Cl)c3)c2)cc1 (stereo unspecified)	inconclusive: 5.62 µM [inhibitor, full curve, poor fit]	
COc1cccc2c1C(=O)c1c(O)c3c(c(O)c1C2=O)C[C@@](O)(C(=O)CO)C[C@@H]3O[C@H]1C[C@H](N)[C@H](O)[C@H](C)O1	active: 31.6 µM	
CC(=O)Nc1ccc(-n2nnnc2SCC(=O)Nc2cccc(NC(=O)c3ccco3)c2)cc1	inconclusive: 31.6 µM [inhibitor, single point]	
O=[N+]([O-])c1cc2no[n+]([O-])c2cc1N1CCCCC1	inconclusive: 39.8 µM [inhibitor, partial curve]	
COc1ccc(S(=O)(=O)N(CC(=O)Nc2ccc(F)c(Cl)c2)c2ccc(C)cc2)cc1OC	inconclusive: 1.58 µM [inhibitor, full curve]	
Cc1nc2c3ccccc3nc(NNC(=O)CCC(=O)N3CCN(c4cccc(Cl)c4)CC3)n2n1		inactive: 7.29%

Reformatted: entries from further up.
Structure (SMILES),Potency,"activity change, negative = inhibition"
CCOC(=O)c1cccc(N/C=C/C(=O)c2ccc(OC)c(OC)c2)c1,"inconclusive: 39.8 µM [inhibitor, partial curve]",
O=C(c1cnn2c1NC(c1ccco1)CC2C(F)(F)F)N1CCN(c2cccc(Cl)c2)CC1 (stereo unspecified),"inconclusive: 28.2 µM [inhibitor, partial curve]",
